PubChem BioAssay AID1053208, Peter MacCallum Cancer Centre | 2014
Here is a random part of about 17,000 reagents tested. 788 of all reagents (4.7%) were called active. 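Calls rest on z-score classes alone; an extra cut-off of viability at most 70% of control was not applied to them.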 Entries without a mark were called inactive. No sequences are given here.

Screen: 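Find knock-downs that sensitise mouse osteosarcoma cells to doxorubicin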 (primary screen)
Cell system: mouse osteosarcoma cells, early-passage culture from an engineered mouse model of fibroblastic bone tumour
Reagent: siRNA pool against mouse genes, 40 nM
Duration: about 120 h (48 h before drug, then 72 h with drug)
Challenge: doxorubicin 100 nM for 72 h, roughly 30-40% inhibitory dose
Measurement: 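Viability read as ATP luminescence after 72 h of 100 nM doxorubicin or none, duplicate wells averaged, scaled to non-targeting siRNA, then expressed as robust z-scores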
Scale: viability z-score with doxorubicin and doxorubicin viability vs non-targeting: higher = more viable cells under doxorubicin; viability z-score without drug: higher = more viable cells with knock-down alone; z-score of drug to no-drug ratio: higher = less drug sensitisation by knock-down
Rule for the call: 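Called active if knock-down leaves viability unchanged without drug (z within -2 to 2) but lowers it with doxorubicin (z at or under -2)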

The first 2 records as a preview:
| target gene | combined z-score class | viability z-score with doxorubicin | viability z-score without drug | z-score of drug to no-drug ratio | doxorubicin viability vs non-targeting |
| --- | --- | --- | --- | --- | --- |
| Eeig1 (estrogen-induced osteoclastogenesis regulator 1) | no change with or without drug | 1.01 | -0.84 | 1.8 | 1.03 |
| Tnfsf4 (tumor necrosis factor (ligand) superfamily, member 4) | no change with or without drug | 0.45 | 1.85 | -0.67 | 0.98 |

Main list, repeating the preview:
| target gene | combined z-score class | viability z-score with doxorubicin | viability z-score without drug | z-score of drug to no-drug ratio | doxorubicin viability vs non-targeting |
| --- | --- | --- | --- | --- | --- |
| Eeig1 (estrogen-induced osteoclastogenesis regulator 1) | no change with or without drug | 1.01 | -0.84 | 1.8 | 1.03 |
| Tnfsf4 (tumor necrosis factor (ligand) superfamily, member 4) | no change with or without drug | 0.45 | 1.85 | -0.67 | 0.98 |
| Or1j13 (olfactory receptor family 1 subfamily J member 13) | no change with or without drug | -1.12 | -1.18 | -0.34 | 0.84 |
| Cd36 (CD36 molecule) | no change with or without drug | 0 | -0.34 | 0.34 | 0.94 |
| Ywhab | no change with or without drug | -0.22 | 0 | -0.11 | 0.92 |
| Cfap43 (cilia and flagella associated protein 43) | high without drug; low with doxorubicin | -2.59 | 2.02 | -3.6 | 0.71 |
| Rassf3 (Ras association (RalGDS/AF-6) domain family member 3) | high cell count without drug only | 1.35 | 2.19 | 0 | 1.06 |
| Ints1 (integrator complex subunit 1) | low cell count without drug only | -1.57 | -2.19 | 0 | 0.8 |
| Foxp4 (forkhead box P4) | no change with or without drug | -0.79 | -0.51 | -0.34 | 0.87 |
| Gstt4 (glutathione S-transferase, theta 4) | no change with or without drug | -1.24 | -1.52 | -0.11 | 0.83 |
| Dnajc18 (DnaJ heat shock protein family (Hsp40) member C18) | no change with or without drug | 0.34 | 0.17 | 0.34 | 0.97 |
| Nfam1 (Nfat activating molecule with ITAM motif 1) | no change with or without drug | -0.11 | 0.17 | -0.11 | 0.93 |
| Card6 (caspase recruitment domain family, member 6) | no change with or without drug | 0.34 | 0 | 0.45 | 0.97 |
| Tefm (transcription elongation factor, mitochondrial) | no change with or without drug | 0.67 | 0.51 | 0.45 | 1 |
| Ptprg (protein tyrosine phosphatase receptor type G) | no change with or without drug | 0.56 | -0.17 | 0.79 | 0.99 |
| Slc22a1 | no change with or without drug | -1.57 | 0.17 | -1.69 | 0.8 |
| Srsf9 (serine and arginine-rich splicing factor 9) | no change with or without drug | 0.34 | 0.17 | 0.34 | 0.97 |
| Fga (fibrinogen alpha chain) | no change with or without drug | -0.56 | 1.52 | -1.35 | 0.89 |
| Hook3 (hook microtubule tethering protein 3) | no change with or without drug | -0.34 | 1.18 | -1.01 | 0.91 |
| Or9s27 (olfactory receptor family 9 subfamily S member 27) | low cell count with and without drug | -2.25 | -2.53 | -0.67 | 0.74 |
